According to publication PMC9060481:
Results are given in words; binding and its absence hold for the method and conditions named. For some assays here: A result given as binding can be weak or reduced; the word gives no strength. For some assays here: Tags and fused reporters may be left off the sequences shown.

What was measured:
[1] = biological target: T1, DOESN'T MAKE INFECTIONS1 (DMI1), yeast two-hybrid fusion (M. truncatula) (UniProt Q6RHR6); assay: two-hybrid; pairwise yeast two hybrids
T1 sequence: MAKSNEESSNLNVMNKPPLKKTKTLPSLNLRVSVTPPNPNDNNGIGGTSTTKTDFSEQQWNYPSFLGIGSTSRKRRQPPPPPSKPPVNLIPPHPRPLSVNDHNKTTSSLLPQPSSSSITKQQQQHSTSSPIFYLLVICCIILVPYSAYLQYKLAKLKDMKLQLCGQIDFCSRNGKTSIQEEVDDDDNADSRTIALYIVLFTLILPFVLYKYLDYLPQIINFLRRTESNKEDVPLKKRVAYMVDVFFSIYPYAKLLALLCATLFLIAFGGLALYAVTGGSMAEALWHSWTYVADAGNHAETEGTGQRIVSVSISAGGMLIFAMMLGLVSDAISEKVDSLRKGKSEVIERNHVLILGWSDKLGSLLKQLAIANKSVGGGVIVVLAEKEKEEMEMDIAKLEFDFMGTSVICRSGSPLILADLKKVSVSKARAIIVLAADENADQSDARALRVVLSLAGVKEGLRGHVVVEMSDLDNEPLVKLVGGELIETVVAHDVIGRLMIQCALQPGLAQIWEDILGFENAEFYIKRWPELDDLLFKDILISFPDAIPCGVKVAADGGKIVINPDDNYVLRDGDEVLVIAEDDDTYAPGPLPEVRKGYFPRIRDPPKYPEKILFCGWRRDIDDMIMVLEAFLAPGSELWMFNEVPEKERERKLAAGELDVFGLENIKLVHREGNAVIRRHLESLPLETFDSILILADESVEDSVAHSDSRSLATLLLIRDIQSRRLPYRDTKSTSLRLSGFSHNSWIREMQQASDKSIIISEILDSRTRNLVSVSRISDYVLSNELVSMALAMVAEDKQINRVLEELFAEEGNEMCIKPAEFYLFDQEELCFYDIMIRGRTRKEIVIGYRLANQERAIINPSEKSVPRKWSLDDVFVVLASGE

[2] = biological target: T2, CNGC15b-IQ peptide (M. truncatula); assay: ITC; CaM2 or CaM2^R91A with 10 µM IQ peptide in the presence of 5 mM CaCl2; both purified
T2 sequence (peptide): AACFIQVAWRRTIQEKKG

[3] = biological target: T3, CNGC15c-IQ peptide (M. truncatula); assay: as above
T3 sequence (peptide): AACFIQAAWRRHKKRKEA

Substance | binding [1] | binding [2] | binding [3]
CALMODULIN 2 (CaM2), yeast two-hybrid fusion (M. truncatula) | no binding | – | –
CaM2^R91A, yeast two-hybrid fusion (M. truncatula) | no binding | – | –
CALMODULIN 1 (CaM1), yeast two-hybrid fusion (M. truncatula) | no binding | – | –
calmodulin 2 (CaM2), purified recombinant protein (M. truncatula) | – | binds | binds
CaM2^R91A, purified recombinant protein (M. truncatula) | – | binds | binds
CALMODULIN 3 (CaM3), yeast two-hybrid fusion (M. truncatula) | no binding | – | –
